The target of test [1] is recombinant monkey IL-17A (monkey). The experiment in a line: ELISA, cytokine coated on plate. (In general: An ELISA detects its analyte on a solid surface through an enzyme-linked reagent.)
Test [2] deals with recombinant human IL-1 (human). Put plainly: ELISA, cytokine coated on plate at 1 µg/mL.

No constants are given. Whether binding was seen depends on the method and setting. For some assays here: A result given as binding can be weak or reduced; the word gives no strength.

B1: anti-human IL-17A chimeric monoclonal antibody (antibody, human IgG1, kappa, V domains shown)
VH: DVQVQESGPGLVKPSQSLSLTCTVTGNSITSYYAWNWIRQFPGNKLEWMGYITYSGTTSYNPSLKSRISITRDTSKNQFFLQLNSVTTEDTATYYCAREEYDDIYAVDYWGQGTSVTVSS
VL: IIVMTQTPLSLPVSLGDQASISCRSSQSLVHSNGNTYLHWYLQKPGQSPKLLIYKVYNRFSGVPDRFSGSGSGTDFTLKISRVEAEDLGVYFCSQSTHFPTFGGGTKLEIKR
On to B1, for which the binding result in test [1] was “binds”; in test [2] it was “no binding”.

Values taken from patent US20190256588A1.
